Measured values as given in doi:10.1101/2020.09.29.317958.
Results are given in words; binding and its absence hold for the method and conditions named. Binding seen in cells or lysates may run through a third protein. Some results given as binding are weak or reduced against the parent protein; the word gives no strength.

The chains behind the UniProt entries cited, without tags or fusion partners.
UniProt Q9ESN2: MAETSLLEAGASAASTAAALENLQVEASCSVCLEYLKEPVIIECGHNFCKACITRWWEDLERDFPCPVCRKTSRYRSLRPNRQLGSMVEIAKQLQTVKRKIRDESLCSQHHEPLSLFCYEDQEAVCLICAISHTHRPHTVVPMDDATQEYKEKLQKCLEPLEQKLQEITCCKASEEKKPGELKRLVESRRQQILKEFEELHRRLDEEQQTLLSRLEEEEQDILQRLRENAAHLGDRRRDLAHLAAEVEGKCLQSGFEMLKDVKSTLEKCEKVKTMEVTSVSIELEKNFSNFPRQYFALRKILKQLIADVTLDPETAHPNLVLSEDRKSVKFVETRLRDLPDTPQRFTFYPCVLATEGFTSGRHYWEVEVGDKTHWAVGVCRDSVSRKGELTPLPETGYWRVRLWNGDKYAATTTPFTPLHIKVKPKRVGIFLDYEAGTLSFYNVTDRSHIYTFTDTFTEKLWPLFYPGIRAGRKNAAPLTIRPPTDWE
UniProt Q7TPM3: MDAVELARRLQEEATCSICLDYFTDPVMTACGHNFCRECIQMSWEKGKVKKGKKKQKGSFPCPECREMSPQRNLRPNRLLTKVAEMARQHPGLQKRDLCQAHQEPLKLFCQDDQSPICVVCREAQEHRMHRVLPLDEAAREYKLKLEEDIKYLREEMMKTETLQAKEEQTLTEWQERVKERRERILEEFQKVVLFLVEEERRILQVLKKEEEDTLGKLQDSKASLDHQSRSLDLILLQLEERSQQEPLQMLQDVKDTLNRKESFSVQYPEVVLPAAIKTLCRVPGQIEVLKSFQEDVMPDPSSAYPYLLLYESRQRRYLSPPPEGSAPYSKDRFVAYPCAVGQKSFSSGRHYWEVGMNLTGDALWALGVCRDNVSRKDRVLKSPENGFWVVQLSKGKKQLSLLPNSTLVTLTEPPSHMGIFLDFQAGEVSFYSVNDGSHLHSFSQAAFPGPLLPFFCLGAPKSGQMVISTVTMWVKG

Tests used:
Flag-Trim39 (mouse) = Flag-Trim39 (mouse) (UniProt Q9ESN2); test: co-IP
Trim17-GFP (mouse) = Trim17-GFP (mouse) (UniProt Q7TPM3); test: co-IP

## Trim17-GFP (from UniProt Q7TPM3 1-477)
Flag-Trim39 (mouse)
  binding: binds

## Flag-Trim39 (from UniProt Q9ESN2 1-488)
Trim17-GFP (mouse)
  binding: binds
